Measurements: publication PMC9170289
No constants are given. Whether binding was seen depends on the method and setting. For some assays here: Binding can be weak; no strength is given.

Chains of the proteins cited; added tags and fusions are not shown. Lines headed by an entry give the natural chain unless they say otherwise; changes in a name come on top.
UniProt P53550: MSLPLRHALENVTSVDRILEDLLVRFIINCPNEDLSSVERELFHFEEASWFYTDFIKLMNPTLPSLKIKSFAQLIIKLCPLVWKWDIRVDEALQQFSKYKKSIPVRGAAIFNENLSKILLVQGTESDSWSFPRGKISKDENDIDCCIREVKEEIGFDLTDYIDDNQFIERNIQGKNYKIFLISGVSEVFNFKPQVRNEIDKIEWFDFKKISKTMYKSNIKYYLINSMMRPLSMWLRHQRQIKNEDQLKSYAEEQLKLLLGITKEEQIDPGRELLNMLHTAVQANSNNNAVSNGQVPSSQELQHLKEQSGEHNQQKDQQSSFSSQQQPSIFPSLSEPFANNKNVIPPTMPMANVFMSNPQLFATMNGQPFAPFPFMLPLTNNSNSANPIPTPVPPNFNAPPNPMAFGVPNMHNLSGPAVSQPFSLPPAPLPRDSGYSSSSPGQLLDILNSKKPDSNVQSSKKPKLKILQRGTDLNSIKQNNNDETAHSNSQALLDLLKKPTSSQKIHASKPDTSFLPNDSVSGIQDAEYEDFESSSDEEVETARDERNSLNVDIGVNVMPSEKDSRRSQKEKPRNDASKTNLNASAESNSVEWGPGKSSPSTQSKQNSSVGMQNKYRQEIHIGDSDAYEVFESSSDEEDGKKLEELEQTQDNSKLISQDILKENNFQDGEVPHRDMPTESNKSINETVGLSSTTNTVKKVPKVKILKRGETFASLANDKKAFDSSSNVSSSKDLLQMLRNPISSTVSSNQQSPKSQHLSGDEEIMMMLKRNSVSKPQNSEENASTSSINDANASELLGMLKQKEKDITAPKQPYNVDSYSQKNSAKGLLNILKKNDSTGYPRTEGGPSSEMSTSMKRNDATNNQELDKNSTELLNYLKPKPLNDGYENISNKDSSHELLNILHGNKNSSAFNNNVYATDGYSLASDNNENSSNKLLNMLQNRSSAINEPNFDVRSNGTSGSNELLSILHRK

Key:
Experiment in all cases: two-hybrid; GAL4(DB) fusion and GAL4(AD) fusion cotransformed into the wild-type tester strain GGY1::171; X-Gal colony colour on SSX plates, 30°C; pairs said to be unaffected were also tested in upf1Δ, pat1Δ, scd6Δ, edc3Δ or dcp2-N245 derivatives
[1] = target: Dcp2 E3D (Edc3-binding motif E3 deleted) (S. cerevisiae) (UniProt P53550)
[2] = target: Dcp2 E3D-LD9-2 (S. cerevisiae) (UniProt P53550)
[3] = target: Dcp2 E3D-LD9-3 (S. cerevisiae) (UniProt P53550)
[4] = target: Dcp2 E3D1-LD9-2 (S. cerevisiae) (UniProt P53550)
[5] = target: Dcp2 E3D1-LD9-3 (S. cerevisiae) (UniProt P53550)
[6] = target: Dcp2 ID (inhibitory element IE deleted) (S. cerevisiae) (UniProt P53550)
[7] = target: Dcp2 LD1-4 (leucine-rich motifs L1 to L4 deleted) (S. cerevisiae) (UniProt P53550)
[8] = target: Dcp2 LD9-3 (leucine-rich motifs L9 to L3 deleted) (S. cerevisiae) (UniProt P53550)
[9] = target: Dcp2 LD9-4 (leucine-rich motifs L9 to L4 deleted) (S. cerevisiae) (UniProt P53550)
[10] = target: Dcp2 LD9-6 (leucine-rich motifs L9 to L6 deleted) (S. cerevisiae) (UniProt P53550)
[11] = target: Dcp2 U1D1-U1D2 (both Upf1-binding motifs deleted) (S. cerevisiae) (UniProt P53550)

binding [1]: binds
binding [6]: binds
binding [11]: binds
B1: Pat1 (protein, UniProt P25644 1-796)
chain: MSFFGLENSGNARDGPLDFEESYKGYGEHELEENDYLNDETFGDNVQVGTDFDFGNPHSSGSSGNAIGGNGVGATARSYVAATAEGISGPRTDGTAAAGPLDLKPMESLWSTAPPPAMAPSPQSTMAPAPAPQQMAPLQPILSMQDLERQQRQMQQQFMNFHAMGHPQGLPQGPPQQQFPMQPASGQPGPSQFAPPPPPPGVNVNMNQMPMGPVQVPVQASPSPIGMSNTPSPGPVVGATKMPLQSGRRSKRDLSPEEQRRLQIRHAKVEKILKYSGLMTPRDKDFITRYQLSQIVTEDPYNEDFYFQVYKIIQRGGITSESNKGLIARAYLEHSGHRLGGRYKRTDIALQRMQSQVEKAVTVAKERPSKLKDQQAAAGNSSQDNKQANTVLGKISSTLNSKNPRRQLQIPRQQPSDPDALKDVTDSLTNVDLASSGSSSTGSSAAAVASKQRRRSSYAFNNGNGATNLNKSGGKKFILELIETVYEEILDLEANLRNGQQTDSTAMWEALHIDDSSYDVNPFISMLSFDKGIKIMPRIFNFLDKQQKLKILQKIFNELSHLQIIILSSYKTTPKPTLTQLKKVDLFQMIILKIIVSFLSNNSNFIEIMGLLLQLIRNNNVSFLTTSKIGLNLITILISRAALIKQDSSRSNILSSPEISTWNEIYDKLFTSLESKIQLIFPPREYNDHIMRLQNDKFMDEAYIWQFLASLALSGKLNHQRIIIDEVRDEIFATINEAETLQKKEKELSVLPQRSQELDTELKSIIYNKEKLYQDLNLFLNVMGLVYRDGEISELK
binding [2]: no binding
binding [3]: binds weakly
binding [4]: no binding
binding [5]: binds weakly
binding [7]: binds
binding [8]: binds weakly
binding [9]: binds weakly
binding [10]: binds
